Experimental data from US20100303917A1, “COMPOSITIONS AND METHODS FOR TREATING CYSTIC FIBROSIS” (Revalesio Corporation, priority 2007, published 2010).
At least one compound was matched to its structure with a doubt left.

System: ovalbumin-induced airway inflammation
Assay: Brown Norway rat ovalbumin sensitization model with Budesonide
Assay type: in vivo, Brown Norway rats

SMILES: CCCC1O[C@@H]2C[C@H]3[C@@H]4CCC5=CC(=O)C=C[C@]5(C)[C@H]4[C@@H](O)C[C@]3(C)[C@]2(C(=O)CO)O1 (stereo partly shown) [Budesonide]
- blood level of eotaxin (6 hours post challenge, Budesonide 750 ug/kg): reduced
- blood level of eotaxin (24 hours post challenge, Budesonide 750 ug/kg): reduced
- blood level of eotaxin (Budesonide 250 ug/kg, 6 and 24 hours post challenge): only had a notable effect at the later time point
- total eosinophil count (blood after ovalbumin challenge, Budesonide 750 μg/Kg, relative to normal saline alone): reduced
- Eosinophil % (blood after ovalbumin challenge, Budesonide 750 ug/kg): did not have a significant effect
- tidal volume (immediately after the challenge, Budesonide 500 and 750 ug/kg): no change
- Penh values (immediately after the challenge, Budesonide 500 and 750 ug/kg alone or with any test fluid): failed to significantly affect
